The other results are listed elsewhere or left out.
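Note: competitive chemoproteomic profiling in live THP-1 cells with an iodoacetamide desthiobiotin (IA-DTB) probe, comparing probe-labelled peptide intensities in compound-treated cells against DMSO-treated controls.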

Compound in one assay: CC1Cc2ccccc2N1C(=O)C1CCCN(C1)C(=O)CCl (mixture of isomers) [TRIM25 ligand 11 (diastereomer mixture)]
Nature of the assay: probe-labelled cysteine peptide fold change vs DMSO (competition) (log2 fold change); higher = less target engagement (more negative = stronger competition). The following applies: 10 µM; THP-1; incubation time: 4 h.
Regarding “OLA1_Q9NTK5_75_VPVPDERFDFLCQYHK (UniProt Q9NTK5)”, the “probe-labelled cysteine peptide fold change” value was 0.102.

As for “PAK3_O75914_424_LTDFGFCAQITPEQSKR (UniProt O75914)”, the “probe-labelled cysteine peptide fold change” value was -0.27.

With “PACSIN2_Q9UNF0_465_MEDEDEQGWCK (UniProt Q9UNF0)”, the “probe-labelled cysteine peptide fold change” value turned out to be 0.118.

As to “PACSIN2_Q9UNF0_44_LCSDLMNCLHER (UniProt Q9UNF0)”, the “probe-labelled cysteine peptide fold change” value was -0.109.

Consider “P3H1_Q32P28_591_DDSHPVHVDNCILNAETLVCVK (UniProt Q32P28)”, for which the “probe-labelled cysteine peptide fold change” value is 0.0787.

For “OSBPL1A_Q9BXW6_39_NEVIADINCK (UniProt Q9BXW6)”, the “probe-labelled cysteine peptide fold change” value turned out to be 0.0705.

On to “OS9_Q13438_181_CDLNGRPR (UniProt Q13438)”, for which the “probe-labelled cysteine peptide fold change” value is 0.0235.

For the target “P4HA1_P13674_167_SFLTAEDCFELGK (UniProt P13674)”, the “probe-labelled cysteine peptide fold change” value was determined as 0.088.

“OTUD7B_Q6GQQ9_345_DSGGEAFAPIPFGGIYLPLEVPASQCHR (UniProt Q6GQQ9)”: the “probe-labelled cysteine peptide fold change” value was determined as 0.184.

On to “OSTF1_Q92882_185_KLAFDMATNAACASLLK (UniProt Q92882)”, for which the “probe-labelled cysteine peptide fold change” value is -0.203.

As for “OGT_O15294_68_QEPDNTGVLLLLSSIHFQCR (UniProt O15294)”, the “probe-labelled cysteine peptide fold change” value turned out to be 0.262.

Take “PARP14_Q460N5_509_VTQHLCLK (UniProt Q460N5)”: the “probe-labelled cysteine peptide fold change” value worked out at 0.118.

Turning to “OSBPL5_Q9H0X9_233_CWLDALELALR (UniProt Q9H0X9)”, the “probe-labelled cysteine peptide fold change” value was -0.146.

“PARP10_Q53GL7_981+983+1004_YDSAVDCICQPSIFVIFHDTQALPTHLITCEHVPR (UniProt Q53GL7)”: the “probe-labelled cysteine peptide fold change” value is -0.174.

Turning to “PAK4_O96013_336_IGEGSTGIVCIATVR (UniProt O96013)”, the “probe-labelled cysteine peptide fold change” value was 0.257.

Regarding “OTULINL_Q9NUU6_226_GSMCNTLFSDAILEYK (UniProt Q9NUU6)”, the “probe-labelled cysteine peptide fold change” value came out at 0.286.

For “OSBPL1A_Q9BXW6_746_PCGLFGK (UniProt Q9BXW6)”, the “probe-labelled cysteine peptide fold change” value turned out to be 0.109.

As to “P4HB_P07237_343_ITEFCHR (UniProt P07237)”, the “probe-labelled cysteine peptide fold change” value is -0.0335.

Consider “PALD1_Q9ULE6_118_MDVLGTVGSCGAPNFR (UniProt Q9ULE6)”, for which the “probe-labelled cysteine peptide fold change” value was 0.187.

Take “PACSIN1_Q9BY11_424_LGEEDEQGWCR (UniProt Q9BY11)”: the “probe-labelled cysteine peptide fold change” value came out at 0.116.

For the target “PARP14_Q460N5_849_AAGPELQADCDQIVK (UniProt Q460N5)”, the “probe-labelled cysteine peptide fold change” value was -0.027.

For “OPTN_Q96CV9_239_NYFEHEELTVSQLLLCLR (UniProt Q96CV9)”, the “probe-labelled cysteine peptide fold change” value is -0.0336.

Staying with this assay, now noted: 50 µM; THP-1; incubation time: 4 h.
Take “PARP10_Q53GL7_983+1004_YDSAVDCICQPSIFVIFHDTQALPTHLITCEHVPR (UniProt Q53GL7)”: the “probe-labelled cysteine peptide fold change” value is -0.306.

As to “OSBPL8_Q9BZF1_575_GEDYVMTMPYAHCK (UniProt Q9BZF1)”, the “probe-labelled cysteine peptide fold change” value turned out to be 0.0805.

For the target “PAPSS2_O95340_155_IHESAGLPFFEIFVDAPLNICESR (UniProt O95340)”, the “probe-labelled cysteine peptide fold change” value is -0.325.

Take “OLA1_Q9NTK5_187_KLKPEYDIMCK (UniProt Q9NTK5)”: the “probe-labelled cysteine peptide fold change” value was -0.371.

Take “PAFAH1B2_P68402_206_ICKPLHELIMQLLEETPEEK (UniProt P68402)”: the “probe-labelled cysteine peptide fold change” value was -0.692.

“PAK1IP1_Q9NWT1_237_FFDCDSLVCLCEFK (UniProt Q9NWT1)”: the “probe-labelled cysteine peptide fold change” value came to 0.244.

Take “OSBPL9_Q96SU4_720_LFHEDGECWVYDEPLLK (UniProt Q96SU4)”: the “probe-labelled cysteine peptide fold change” value is -0.21.

On to “PANK4_Q9NVE7_308_SLLHMISNDIGQLACLHAR (UniProt Q9NVE7)”, for which the “probe-labelled cysteine peptide fold change” value was found to be 0.0263.

Take “OSBPL8_Q9BZF1_575_LTFLNRGEDYVMTMPYAHCK (UniProt Q9BZF1)”: the “probe-labelled cysteine peptide fold change” value came out at 0.141.

As for “PA2G4_Q9UQ80_179_VAHSFNCTPIEGMLSHQLK (UniProt Q9UQ80)”, the “probe-labelled cysteine peptide fold change” value is -0.123.

For “OSBPL1A_Q9BXW6_520_DCGGGDALSNGIK (UniProt Q9BXW6)”, the “probe-labelled cysteine peptide fold change” value came to 0.0314.

As to “OGT_O15294_620_VMAEANHFIDLSQIPCNGK (UniProt O15294)”, the “probe-labelled cysteine peptide fold change” value was -0.392.

Take “OPLAH_O14841_253_YVQGFCR (UniProt O14841)”: the “probe-labelled cysteine peptide fold change” value was determined as 0.0603.

On to “PACSIN2_Q9UNF0_163_AHHAACK (UniProt Q9UNF0)”, for which the “probe-labelled cysteine peptide fold change” value came out at 0.0373.

“PA2G4_Q9UQ80_49_SLVEASSSGVSVLSLCEK (UniProt Q9UQ80)”: the “probe-labelled cysteine peptide fold change” value was -0.0484.

Regarding “OLA1_Q9NTK5_75_VPVPDERFDFLCQYHK (UniProt Q9NTK5)”, the “probe-labelled cysteine peptide fold change” value worked out at 0.153.

With “PAK3_O75914_424_LTDFGFCAQITPEQSKR (UniProt O75914)”, the “probe-labelled cysteine peptide fold change” value is -0.161.

Consider “PACSIN2_Q9UNF0_465_MEDEDEQGWCK (UniProt Q9UNF0)”, for which the “probe-labelled cysteine peptide fold change” value is 0.00577.

On to “PACSIN2_Q9UNF0_44_LCSDLMNCLHER (UniProt Q9UNF0)”, for which the “probe-labelled cysteine peptide fold change” value is -0.0429.

Turning to “P3H1_Q32P28_591_DDSHPVHVDNCILNAETLVCVK (UniProt Q32P28)”, the “probe-labelled cysteine peptide fold change” value came to 0.108.

Take “OSBPL1A_Q9BXW6_39_NEVIADINCK (UniProt Q9BXW6)”: the “probe-labelled cysteine peptide fold change” value came to 0.177.

“OS9_Q13438_181_CDLNGRPR (UniProt Q13438)”: the “probe-labelled cysteine peptide fold change” value turned out to be 0.139.

“P4HA1_P13674_167_SFLTAEDCFELGK (UniProt P13674)”: the “probe-labelled cysteine peptide fold change” value is 0.0677.

As for “OTUD7B_Q6GQQ9_345_DSGGEAFAPIPFGGIYLPLEVPASQCHR (UniProt Q6GQQ9)”, the “probe-labelled cysteine peptide fold change” value came to 0.0768.

For the target “OSTF1_Q92882_185_KLAFDMATNAACASLLK (UniProt Q92882)”, the “probe-labelled cysteine peptide fold change” value was -0.151.

Take “OGT_O15294_68_QEPDNTGVLLLLSSIHFQCR (UniProt O15294)”: the “probe-labelled cysteine peptide fold change” value is 0.329.

In the case of “PARP14_Q460N5_509_VTQHLCLK (UniProt Q460N5)”, the “probe-labelled cysteine peptide fold change” value came to 0.182.

With “OSBPL5_Q9H0X9_233_CWLDALELALR (UniProt Q9H0X9)”, the “probe-labelled cysteine peptide fold change” value is -0.165.

With “PARP10_Q53GL7_981+983+1004_YDSAVDCICQPSIFVIFHDTQALPTHLITCEHVPR (UniProt Q53GL7)”, the “probe-labelled cysteine peptide fold change” value was found to be 0.0281.

Regarding “PAK4_O96013_336_IGEGSTGIVCIATVR (UniProt O96013)”, the “probe-labelled cysteine peptide fold change” value amounted to 0.411.

Take “OTULINL_Q9NUU6_226_GSMCNTLFSDAILEYK (UniProt Q9NUU6)”: the “probe-labelled cysteine peptide fold change” value was found to be 0.152.

Take “OSBPL1A_Q9BXW6_746_PCGLFGK (UniProt Q9BXW6)”: the “probe-labelled cysteine peptide fold change” value stood at 0.494.

With “P4HB_P07237_343_ITEFCHR (UniProt P07237)”, the “probe-labelled cysteine peptide fold change” value was -0.0224.

For the target “PALD1_Q9ULE6_118_MDVLGTVGSCGAPNFR (UniProt Q9ULE6)”, the “probe-labelled cysteine peptide fold change” value is -0.0802.

With “PACSIN1_Q9BY11_424_LGEEDEQGWCR (UniProt Q9BY11)”, the “probe-labelled cysteine peptide fold change” value was 0.235.

Turning to “PARP14_Q460N5_849_AAGPELQADCDQIVK (UniProt Q460N5)”, the “probe-labelled cysteine peptide fold change” value was -0.253.

On to “OPTN_Q96CV9_239_NYFEHEELTVSQLLLCLR (UniProt Q96CV9)”, for which the “probe-labelled cysteine peptide fold change” value is 0.0031.

The values are drawn from the supplement of paper PMC12067093, “Discovery and optimisation of a covalent ligand for TRIM25 and its application to targeted protein ubiquitination” (Chemical Science, 2025).
